US9012216B2, “Methods of determining efficacy of cyclodextrin therapy” (Washington University, priority 2008, dated 2015)

Assay: Plasma and tissue oxysterols in NPC1-/- null and wild-type mice
Type: in vivo
Conditions: for Plasma level in NPC1 mice as compared to wild-type mice: ages 4-10 weeks, all time points

SMILES	Plasma level in NPC1 mice as compared to wild-type mice	Level in cerebellar tissue of NPC1 mice (as early as postnatal day 8)
C[C@H](CCCC(C)(C)O)[C@H]1CC[C@H]2[C@@H]3CC=C4C[C@@H](O)CC[C@]4(C)[C@H]3CC[C@]12C [25-HC, 25-hydroxycholesterol]	significant elevations	–
CC(C)CCC[C@@H](C)[C@H]1CC[C@H]2[C@@H]3C[C@@H](O)[C@@]4(O)C[C@@H](O)CC[C@]4(C)[C@H]3CC[C@]12C [triol, cholestane-3β,5α,6β-triol]	significant elevations	elevated
